From PubChem BioAssay (NCATS)
Some of the results follow. The main result of the screen is listed elsewhere. These columns were measured beside it and carry no call. Most of these compounds were active or inconclusive in the main read-out, so they are no random draw. Potencies come from curve fits of mixed quality, noted in brackets.

Assay: qHTS Assay for Modulators of Human Peripheral Myelin Protein 22 (PMP22) Expression/Activity (AID 1967)
Details: Cell-based PMP22 reporter, dual-color luciferase ratio; measured here: red reporter channel AC50; EF-alpha promoter control reporter in MSC80 mouse Schwann cells
In short: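 Mouse MSC80 Schwann cells carrying Pmp22 promoter–green click beetle luciferase plus EF-alpha–red luciferase control, dosed 24 h at 37 °C. Dual-filter luminescence, overlap-corrected; %Activity from green/red ratio normalised to untreated cells, concentration-response curves fitted.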

SMILES	AC50
O=C(OC1CCN(CCCl)CC1)C(c1ccccc1)c1ccccc1	67.5 µM [falling, partial curve]
C[C@H](N)CN1CCc2ccc(Br)cc21	84.9 µM [falling, partial curve]
CC(C)[C@@]1(NC(=O)[C@@H]2C[C@@H]3c4cccc5[nH]cc(c45)C[C@H]3N(C)C2)O[C@@]2(O)C3CCCN3C(=O)[C@H](Cc3ccccc3)N2C1=O (stereo not given in full)	53.6 µM [falling, partial curve]
CC(C)(C)c1cc(C=C(C#N)C#N)cc(C(C)(C)C)c1O	2.69 µM [falling, full curve]
c1ccc2c(c1)OCC(C1=NCCN1)O2 (stereo not given)	26.9 µM [falling, full curve]
Oc1ccccc1O	75.7 µM [falling, single point]
COc1ccc(-n2nc(C(F)(F)F)cc2-c2ccc(Cl)cc2)cc1	84.9 µM [falling, single point]
CC(=O)[C@H]1CCC2C3CC[C@H]4C[C@H](O)CC[C@]4(C)C3CC[C@@]21C (stereo not given in full)	67.5 µM [falling, partial curve]
C/C=C(/C)C(=O)O[C@H]1C(C)=C2C([C@@H]1OC(=O)CCCCCCC)[C@@](C)(OC(C)=O)C[C@@H](OC(=O)CCC)[C@@]1(O)[C@H]2OC(=O)[C@@]1(C)O (stereo not given in full)	0.0601 µM [falling, full curve]
NC(Cc1ccc(N(CCCl)CCCl)cc1)C(=O)O (stereo not given)	53.6 µM [falling, partial curve]
Cc1ccc(S(=O)(=O)N[C@@H](CCCCN)C(=O)CCl)cc1	67.5 µM [falling, single point]
CCc1c(C(=O)OC)ncc2[nH]c3cc(OC)c(OC)cc3c12	37.9 µM [falling, partial curve]
O=[N+]([O-])c1ccc2nc(N3CCNCC3)ccc2c1	75.7 µM [falling, partial curve, poor fit]
NC(N)=Nc1ccc2[nH]c3c(c2c1)C[C@@]1(O)[C@H]2Cc4ccc(O)c5c4[C@@]1(CCN2CC1CC1)[C@H]3O5	47.8 µM [falling, partial curve, poor fit]
CN1CC[C@@]2(C)c3cc(O)ccc3N(C)C12 (stereo not given in full)	95.3 µM [falling, single point]
O=c1[nH]cc(F)c(=O)[nH]1	4.78 µM [falling, full curve]
OCCN1CCN(CCCN2c3ccccc3Sc3ccc(C(F)(F)F)cc32)CC1	33.8 µM [falling, full curve]

Assay: qHTS Validation Assay to Find Inhibitors of Chronic Active B-Cell Receptor Signaling (AID 485345)
Details: ABC-DLBCL cells, chronic BCR signaling reporter; measured here: CBG/CBR ratio read-out
In short: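 TMD8 ABC-DLBCL cells with dox-inducible green luciferase–IκBα fusion and red native luciferase; compounds 46 uM–3 nM, 4 h at 37C with doxycycline in 0.5% FBS IMDM. Green/red ratio normalized to basal and 10 uM MG-132.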

SMILES	AC50
CC(C)(C)c1cc(C=C(C#N)C#N)cc(C(C)(C)C)c1O	16.4 µM [falling, partial curve]
c1ccc2c(c1)OCC(C1=NCCN1)O2 (stereo not given)	18.4 µM [falling, partial curve]
Cc1ccc(S(=O)(=O)N[C@@H](CCCCN)C(=O)CCl)cc1	18.4 µM [falling, partial curve]
NC(N)=Nc1ccc2[nH]c3c(c2c1)C[C@@]1(O)[C@H]2Cc4ccc(O)c5c4[C@@]1(CCN2CC1CC1)[C@H]3O5	13 µM [falling, partial curve]

Same assay, conditions: ABC-DLBCL cells, chronic BCR signaling reporter; measured here: CBR control luciferase (viability counter)

SMILES	AC50
C[C@H](N)CN1CCc2ccc(Br)cc21	18.4 µM [falling, single point]
CC(C)(C)c1cc(C=C(C#N)C#N)cc(C(C)(C)C)c1O	6.51 µM [falling, partial curve]
c1ccc2c(c1)OCC(C1=NCCN1)O2 (stereo not given)	8.2 µM [falling, partial curve]
Oc1ccccc1O	29.1 µM [falling, single point]
NC(Cc1ccc(N(CCCl)CCCl)cc1)C(=O)O (stereo not given)	14.6 µM [rising, partial curve, poor fit]
Cc1ccc(S(=O)(=O)N[C@@H](CCCCN)C(=O)CCl)cc1	20.6 µM [falling, single point]
O=[N+]([O-])c1ccc2nc(N3CCNCC3)ccc2c1	18.4 µM [rising, single point]
NC(N)=Nc1ccc2[nH]c3c(c2c1)C[C@@]1(O)[C@H]2Cc4ccc(O)c5c4[C@@]1(CCN2CC1CC1)[C@H]3O5	16.4 µM [falling, single point]
O=c1oc(Cl)c(Cl)c2ccccc12	10.3 µM [falling, partial curve]

Assay: Nrf2 qHTS screen for inhibitors: Validation (AID 493153)
Details: A549 ARE-Fluc reporter, 18-24 h; AC50: CellTiter-Fluor fluorescence read, measured here: cytotoxicity CellTiter-Fluor AC50; viability change: measured here: cytotoxicity max response
In short: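 Luminescence from an ARE-firefly luciferase reporter in A549 cells gives Nrf2 inhibition; an earlier CellTiter-Fluor fluorescent read flags cytotoxicity. Cells in 5% FBS OPTI-MEM received compound dilution series for 18-24 h at 37°C.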

SMILES	viability change	AC50
CC(C)(C)c1cc(C=C(C#N)C#N)cc(C(C)(C)C)c1O	-64.1%	1.84 µM [falling, full curve]
c1ccc2c(c1)OCC(C1=NCCN1)O2 (stereo not given)	-24%	16.4 µM [falling, partial curve, poor fit]
Oc1ccccc1O	-28.4%	23.1 µM [falling, partial curve, poor fit]
NC(Cc1ccc(N(CCCl)CCCl)cc1)C(=O)O (stereo not given)	-7.8%	–
Nc1nc(N)c2nc(CNc3ccc(C(=O)NC(CCC(=O)O)C(=O)O)cc3)cnc2n1 (stereo not given)	4.51%	–
CN1CC[C@@]2(C)c3cc(O)ccc3N(C)C12 (stereo not given in full)	-37.9%	18.4 µM [falling, single point]

Looked up by compound from above, 2 records:
SMILES	viability change	AC50
CC(C)(C)c1cc(C=C(C#N)C#N)cc(C(C)(C)C)c1O	-64.1%	1.84 µM [falling, full curve]
c1ccc2c(c1)OCC(C1=NCCN1)O2 (stereo not given)	-24%	16.4 µM [falling, partial curve, poor fit]
